The other results are listed elsewhere or left out. Repeats are few or missing, and single values can be far off.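 The apoptosis fraction was the count of cleaved-PARP antibody-stained nuclei relative to all DNA-stained nuclei, imaged in 1,536-well plates. Screening doses were set so most cells survived, and baseline and induced cleaved-PARP levels vary greatly across cell lines.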
system: SkMel2; assay: cleaved PARP positive nuclei fraction relative to DMSO control; melanoma cells; higher = more apoptosis; conditions: library dose: low library concentration; 72 h

SMILES	cleaved PARP positive nuclei fraction [%]
O=C(Nc1cc(C(F)(F)F)cc(C(F)(F)F)c1)c1cc(Cl)ccc1O + Cn1cnc2c(F)c(Nc3ccc(Br)cc3Cl)c(C(=O)NOCCO)cc21 [selumetinib] (first compound 0.016 µM, partner dose 0.015 µM)	109
Cc1ccc(Nc2nccc(N(C)c3ccc4c(C)n(C)nc4c3)n2)cc1S(N)(=O)=O [Pazopanib] + CC(=O)c1c(C)c2cnc(Nc3ccc(N4CCNCC4)cn3)nc2n(C2CCCC2)c1=O [palbociclib] (first compound 0.4 µM, partner dose 0.04 µM)	144
CC[C@]1(O)C[C@H]2CN(CCc3c([nH]c4ccccc34)[C@@](C(=O)OC)(c3cc4c(cc3OC)N(C=O)[C@H]3[C@@](O)(C(=O)OC)[C@H](OC(C)=O)[C@]5(CC)C=CCN6CC[C@]43[C@@H]65)C2)C1 [vincristine] + C#Cc1cccc(Nc2ncnc3cc(OCCOC)c(OCCOC)cc23)c1 [erlotinib] (first compound 0.0001 µM, partner dose 0.8 µM)	373
N#CC[C@H](C1CCCC1)n1cc(-c2ncnc3[nH]ccc23)cn1 [ruxolitinib] + O=C(O)[C@@H]1[O][Sb](=[O])([O][Sb]2(=[O])[O][C@H]([C@H](O)CO)[C@H](O)[C@H](C(=O)O)[O]2)[O][C@H]([C@H](O)CO)[C@@H]1O [stibogluconate] (first compound 1 µM, partner dose 2 µM)	232
Cc1cn(-c2cc(NC(=O)c3ccc(C)c(Nc4nccc(-c5cccnc5)n4)c3)cc(C(F)(F)F)c2)cn1 [nilotinib] + CC(=O)O[C@@]12CO[C@@H]1C[C@H](O)[C@@]1(C)C(=O)[C@H](O)C3=C(C)[C@@H](OC(=O)[C@H](O)[C@@H](NC(=O)OC(C)(C)C)c4ccccc4)C[C@@](O)([C@@H](OC(=O)c4ccccc4)[C@H]21)C3(C)C [Docetaxel] (first compound 0.2 µM, partner dose 0.0001 µM)	580

Source: the supplement of paper PMC4604168 (melanoma cell lines)
